# The list shows a part of the results, in another mix than the full data. The data scatter; read single values as rough.
# Sequences of proteins named here, by UniProt entry; tags and fusion partners are left off. A change or cut given only in a name is not applied to a line headed by its entry.
# UniProt P17655: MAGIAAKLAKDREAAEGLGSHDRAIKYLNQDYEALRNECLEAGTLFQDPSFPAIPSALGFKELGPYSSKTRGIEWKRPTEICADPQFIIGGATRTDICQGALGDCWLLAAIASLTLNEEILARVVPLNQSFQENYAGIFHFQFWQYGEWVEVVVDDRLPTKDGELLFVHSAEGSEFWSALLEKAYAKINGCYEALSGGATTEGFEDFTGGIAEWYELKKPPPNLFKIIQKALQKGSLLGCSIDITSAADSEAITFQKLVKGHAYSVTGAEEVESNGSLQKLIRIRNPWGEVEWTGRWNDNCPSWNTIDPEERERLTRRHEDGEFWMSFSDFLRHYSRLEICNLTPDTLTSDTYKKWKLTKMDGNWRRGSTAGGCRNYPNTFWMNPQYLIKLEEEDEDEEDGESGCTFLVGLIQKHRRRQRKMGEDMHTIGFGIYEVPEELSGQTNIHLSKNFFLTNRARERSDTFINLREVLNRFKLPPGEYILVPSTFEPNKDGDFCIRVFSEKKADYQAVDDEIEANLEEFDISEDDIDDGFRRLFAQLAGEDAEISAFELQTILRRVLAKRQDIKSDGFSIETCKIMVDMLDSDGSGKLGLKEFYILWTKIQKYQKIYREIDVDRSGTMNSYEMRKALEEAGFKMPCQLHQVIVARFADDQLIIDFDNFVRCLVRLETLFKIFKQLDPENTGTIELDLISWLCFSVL
# UniProt P07814: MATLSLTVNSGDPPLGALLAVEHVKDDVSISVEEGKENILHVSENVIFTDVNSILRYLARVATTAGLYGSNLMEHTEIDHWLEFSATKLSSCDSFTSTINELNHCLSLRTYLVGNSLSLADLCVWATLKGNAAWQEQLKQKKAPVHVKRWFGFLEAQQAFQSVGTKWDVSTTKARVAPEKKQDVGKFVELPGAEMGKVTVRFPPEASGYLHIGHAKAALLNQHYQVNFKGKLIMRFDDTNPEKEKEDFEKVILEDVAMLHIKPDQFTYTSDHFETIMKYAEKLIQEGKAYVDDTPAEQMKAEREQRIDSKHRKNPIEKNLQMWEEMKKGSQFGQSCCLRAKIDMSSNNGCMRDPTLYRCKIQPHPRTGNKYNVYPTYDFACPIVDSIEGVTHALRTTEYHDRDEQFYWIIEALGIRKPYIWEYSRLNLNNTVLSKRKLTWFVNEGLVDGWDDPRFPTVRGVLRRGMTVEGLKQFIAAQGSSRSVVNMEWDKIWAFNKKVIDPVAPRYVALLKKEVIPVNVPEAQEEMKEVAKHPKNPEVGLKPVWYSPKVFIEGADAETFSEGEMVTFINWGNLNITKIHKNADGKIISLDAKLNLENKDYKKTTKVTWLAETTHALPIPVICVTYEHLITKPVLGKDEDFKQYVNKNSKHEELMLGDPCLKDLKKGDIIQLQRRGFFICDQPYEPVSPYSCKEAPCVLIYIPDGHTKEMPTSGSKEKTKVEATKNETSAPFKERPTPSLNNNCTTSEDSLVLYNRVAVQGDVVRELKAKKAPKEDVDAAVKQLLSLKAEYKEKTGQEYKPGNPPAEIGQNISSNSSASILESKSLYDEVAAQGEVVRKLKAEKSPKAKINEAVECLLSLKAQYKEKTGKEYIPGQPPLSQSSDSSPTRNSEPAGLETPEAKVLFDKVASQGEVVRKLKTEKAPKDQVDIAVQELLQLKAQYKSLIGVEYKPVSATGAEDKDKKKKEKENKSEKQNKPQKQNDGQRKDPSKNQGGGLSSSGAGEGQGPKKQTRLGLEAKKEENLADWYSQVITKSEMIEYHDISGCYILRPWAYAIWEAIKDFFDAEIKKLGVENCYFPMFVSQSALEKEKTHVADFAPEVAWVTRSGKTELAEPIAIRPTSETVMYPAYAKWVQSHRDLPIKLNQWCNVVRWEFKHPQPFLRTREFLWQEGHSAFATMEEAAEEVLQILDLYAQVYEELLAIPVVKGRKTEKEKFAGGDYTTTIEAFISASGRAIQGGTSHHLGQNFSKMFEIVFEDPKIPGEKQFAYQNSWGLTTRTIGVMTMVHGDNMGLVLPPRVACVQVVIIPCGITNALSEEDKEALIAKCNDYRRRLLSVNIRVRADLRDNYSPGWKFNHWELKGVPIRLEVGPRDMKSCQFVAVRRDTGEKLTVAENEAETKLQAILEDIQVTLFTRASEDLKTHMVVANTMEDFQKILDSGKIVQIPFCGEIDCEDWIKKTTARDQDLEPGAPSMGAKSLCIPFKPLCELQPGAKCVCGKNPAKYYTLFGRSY
# UniProt P11310: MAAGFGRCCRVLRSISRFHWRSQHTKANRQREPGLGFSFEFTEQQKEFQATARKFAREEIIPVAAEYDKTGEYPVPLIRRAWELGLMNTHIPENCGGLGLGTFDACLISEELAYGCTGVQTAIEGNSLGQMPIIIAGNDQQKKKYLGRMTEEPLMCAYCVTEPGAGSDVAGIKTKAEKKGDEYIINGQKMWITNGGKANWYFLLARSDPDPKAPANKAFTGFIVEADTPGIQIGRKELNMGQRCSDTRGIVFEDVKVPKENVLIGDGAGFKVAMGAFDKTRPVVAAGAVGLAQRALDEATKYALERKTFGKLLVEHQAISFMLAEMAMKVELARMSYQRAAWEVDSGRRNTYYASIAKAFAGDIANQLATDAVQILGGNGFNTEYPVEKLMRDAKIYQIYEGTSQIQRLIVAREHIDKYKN
# UniProt P13010: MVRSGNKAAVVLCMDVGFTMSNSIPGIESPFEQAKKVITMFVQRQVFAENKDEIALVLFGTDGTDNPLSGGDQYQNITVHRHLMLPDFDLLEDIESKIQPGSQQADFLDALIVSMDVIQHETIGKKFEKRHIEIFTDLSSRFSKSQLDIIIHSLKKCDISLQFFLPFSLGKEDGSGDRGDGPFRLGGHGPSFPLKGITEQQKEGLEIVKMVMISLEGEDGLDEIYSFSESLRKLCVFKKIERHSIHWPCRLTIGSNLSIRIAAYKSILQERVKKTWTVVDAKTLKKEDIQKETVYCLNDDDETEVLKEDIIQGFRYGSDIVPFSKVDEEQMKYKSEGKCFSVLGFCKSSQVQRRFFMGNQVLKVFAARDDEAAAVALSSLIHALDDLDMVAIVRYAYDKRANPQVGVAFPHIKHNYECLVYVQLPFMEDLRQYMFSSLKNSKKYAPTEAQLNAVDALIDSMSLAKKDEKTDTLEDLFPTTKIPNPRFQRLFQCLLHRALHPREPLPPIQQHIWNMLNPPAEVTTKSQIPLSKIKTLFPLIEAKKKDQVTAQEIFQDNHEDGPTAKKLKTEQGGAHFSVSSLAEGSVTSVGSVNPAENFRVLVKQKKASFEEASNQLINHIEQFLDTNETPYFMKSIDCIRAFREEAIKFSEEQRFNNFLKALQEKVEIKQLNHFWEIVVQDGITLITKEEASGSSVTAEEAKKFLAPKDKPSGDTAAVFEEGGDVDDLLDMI
# UniProt P13489: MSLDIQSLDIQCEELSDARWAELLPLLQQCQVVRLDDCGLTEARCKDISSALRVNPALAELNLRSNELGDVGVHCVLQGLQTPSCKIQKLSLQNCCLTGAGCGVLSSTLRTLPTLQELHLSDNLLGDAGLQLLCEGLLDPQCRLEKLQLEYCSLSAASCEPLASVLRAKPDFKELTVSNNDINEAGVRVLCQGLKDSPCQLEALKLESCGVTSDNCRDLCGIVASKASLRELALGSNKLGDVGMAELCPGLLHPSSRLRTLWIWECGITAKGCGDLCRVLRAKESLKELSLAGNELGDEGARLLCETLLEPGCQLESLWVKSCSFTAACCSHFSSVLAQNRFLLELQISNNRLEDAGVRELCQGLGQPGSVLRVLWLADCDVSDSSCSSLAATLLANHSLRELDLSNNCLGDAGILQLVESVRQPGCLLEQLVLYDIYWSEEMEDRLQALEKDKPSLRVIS
# UniProt P09651: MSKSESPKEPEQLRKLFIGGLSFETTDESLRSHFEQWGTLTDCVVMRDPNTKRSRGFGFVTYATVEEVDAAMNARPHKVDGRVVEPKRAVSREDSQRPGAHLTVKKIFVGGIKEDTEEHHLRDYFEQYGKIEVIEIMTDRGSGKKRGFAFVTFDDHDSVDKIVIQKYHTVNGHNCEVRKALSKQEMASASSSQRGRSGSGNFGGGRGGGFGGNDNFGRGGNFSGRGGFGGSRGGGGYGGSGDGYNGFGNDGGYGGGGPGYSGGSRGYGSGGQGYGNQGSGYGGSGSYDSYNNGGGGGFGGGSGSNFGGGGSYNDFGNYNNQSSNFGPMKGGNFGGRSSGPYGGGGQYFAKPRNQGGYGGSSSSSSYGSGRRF
# UniProt P09874, whole entry, looked up: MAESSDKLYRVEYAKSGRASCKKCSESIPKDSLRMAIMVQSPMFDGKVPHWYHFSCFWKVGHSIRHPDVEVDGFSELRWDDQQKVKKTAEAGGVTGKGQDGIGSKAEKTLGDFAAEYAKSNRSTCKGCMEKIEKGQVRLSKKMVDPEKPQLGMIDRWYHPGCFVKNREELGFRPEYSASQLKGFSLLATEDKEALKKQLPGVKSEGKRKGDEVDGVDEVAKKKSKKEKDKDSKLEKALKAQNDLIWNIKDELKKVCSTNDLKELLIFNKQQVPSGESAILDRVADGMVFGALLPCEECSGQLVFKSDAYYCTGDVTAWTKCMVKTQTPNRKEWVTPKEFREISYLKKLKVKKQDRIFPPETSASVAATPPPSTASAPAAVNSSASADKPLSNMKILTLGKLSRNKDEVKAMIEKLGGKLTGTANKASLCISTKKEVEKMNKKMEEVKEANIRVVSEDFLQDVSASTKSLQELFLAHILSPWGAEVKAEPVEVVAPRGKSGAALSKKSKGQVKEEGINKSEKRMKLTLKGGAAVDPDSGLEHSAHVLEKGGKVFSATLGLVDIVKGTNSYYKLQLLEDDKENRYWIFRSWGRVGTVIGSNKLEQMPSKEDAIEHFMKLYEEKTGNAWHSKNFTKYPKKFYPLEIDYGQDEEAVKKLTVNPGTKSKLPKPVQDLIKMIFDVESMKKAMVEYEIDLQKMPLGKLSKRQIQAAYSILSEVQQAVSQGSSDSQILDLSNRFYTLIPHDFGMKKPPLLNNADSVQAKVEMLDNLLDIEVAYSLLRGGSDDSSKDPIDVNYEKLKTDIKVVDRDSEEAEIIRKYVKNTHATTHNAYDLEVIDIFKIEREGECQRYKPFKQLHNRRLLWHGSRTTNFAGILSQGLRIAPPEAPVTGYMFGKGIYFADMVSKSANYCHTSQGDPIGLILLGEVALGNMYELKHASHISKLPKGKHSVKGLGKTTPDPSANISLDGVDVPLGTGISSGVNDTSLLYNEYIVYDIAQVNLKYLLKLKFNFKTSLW
# UniProt P15170, whole entry, looked up: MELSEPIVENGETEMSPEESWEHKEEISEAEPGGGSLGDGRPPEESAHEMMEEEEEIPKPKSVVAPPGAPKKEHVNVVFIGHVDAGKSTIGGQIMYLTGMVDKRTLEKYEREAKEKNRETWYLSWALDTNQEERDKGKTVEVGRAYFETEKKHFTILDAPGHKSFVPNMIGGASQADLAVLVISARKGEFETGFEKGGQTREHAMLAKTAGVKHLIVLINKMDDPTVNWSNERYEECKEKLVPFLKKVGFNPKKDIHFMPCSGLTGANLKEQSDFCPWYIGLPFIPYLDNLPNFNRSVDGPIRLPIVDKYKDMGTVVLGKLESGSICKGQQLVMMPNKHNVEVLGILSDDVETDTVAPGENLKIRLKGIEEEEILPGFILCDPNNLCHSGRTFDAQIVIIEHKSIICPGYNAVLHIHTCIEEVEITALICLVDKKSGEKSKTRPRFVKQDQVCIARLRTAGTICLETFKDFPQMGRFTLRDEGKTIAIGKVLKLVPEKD
# UniProt P10809, whole entry, looked up: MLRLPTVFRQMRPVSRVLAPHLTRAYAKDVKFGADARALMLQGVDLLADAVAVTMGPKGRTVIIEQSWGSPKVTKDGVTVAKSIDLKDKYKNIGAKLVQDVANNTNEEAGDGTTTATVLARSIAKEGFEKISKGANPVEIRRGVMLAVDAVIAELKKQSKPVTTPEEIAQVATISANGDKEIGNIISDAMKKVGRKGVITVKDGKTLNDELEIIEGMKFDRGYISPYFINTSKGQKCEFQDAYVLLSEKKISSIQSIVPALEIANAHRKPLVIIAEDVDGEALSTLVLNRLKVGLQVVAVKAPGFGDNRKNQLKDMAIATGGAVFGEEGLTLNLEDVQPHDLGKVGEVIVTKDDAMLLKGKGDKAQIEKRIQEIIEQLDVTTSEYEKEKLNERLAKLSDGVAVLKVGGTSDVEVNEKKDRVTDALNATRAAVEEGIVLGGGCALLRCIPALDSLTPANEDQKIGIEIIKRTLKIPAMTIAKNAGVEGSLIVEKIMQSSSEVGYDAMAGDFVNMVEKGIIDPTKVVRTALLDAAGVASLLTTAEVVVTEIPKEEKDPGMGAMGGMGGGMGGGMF
# Compound: COC(=O)/C=C/c1ccccc1 [methyl cinnamate]
# Assay: log2 ratio of iodoacetamide-alkyne labeling of the cysteine site, DMSO over compound (competition); higher = stronger covalent engagement of the cysteine by the compound, active = 1 or more
# Conditions: 500 µM; treatment time 1 h; system: HEK293T cell lysate
# In short: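 Three replicates, each with duplicate channels, were prepared from HEK293T lysate (2 mg/mL) treated with vehicle or electrophile at 500 µM for 1 h at ambient temperature. Iodoacetamide alkyne was then applied for 1 h, and samples were clicked to sCIP-TMT reagents, pooled, trypsin-digested overnight at 37 °C, enriched on streptavidin, acid-eluted and analysed on Orbitrap Eclipse LC-MS/MS with FAIMS, with FragPipe quantification. The log2 competition ratio per cysteine is the mean control-channel divided by the mean compound-channel reporter intensity. Cysteines quantified in only one replicate were left out.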
row,Target,log2 ratio of iodoacetamide-alkyne labeling
1,EEF2 C466 (UniProt P13639),inactive: -0.0963
2,CAPN2 C405 (UniProt P17655),inactive: -0.201
3,EPRS C680 (UniProt P07814),inactive: 0.113
4,ACADM C159 (UniProt P11310),inactive: 0.342
5,XRCC5 C296 (UniProt P13010),inactive: -0.062
6,HNRNPL C151 (UniProt P14866),inactive: 0.0911
7,XRCC5 C339 (UniProt P13010),inactive: -0.0276
8,XRCC5 C157 (UniProt P13010),inactive: 0.121
9,RNH1 C45 (UniProt P13489),inactive: -0.0228
10,HNRNPA1 C43 (UniProt P09651),inactive: 0.114
11,PARP1 C162 (UniProt P09874),inactive: 0.135
12,LAMC1 C1600 (UniProt P11047),inactive: 0.227
13,HSP90AA1 C529 (UniProt P07900),inactive: -0.125
14,DSP C899 (UniProt P15924),inactive: 0.287
15,LTA4H C200 (UniProt P09960),inactive: 0.382
16,IMPDH2 C331 (UniProt P12268),inactive: 0.0594
17,PARP1 C429 (UniProt P09874),inactive: 0.237
18,GSPT1 C327 (UniProt P15170),inactive: 0.165
19,DBT C333 (UniProt P11182),inactive: 0.0844
20,CKMT1A C76 (UniProt P12532),inactive: 0.27
21,HSPD1 C447 (UniProt P10809),inactive: 0.397

# Reformatted with bars between the fields: entries from further up.
row | Target | log2 ratio of iodoacetamide-alkyne labeling
10 | HNRNPA1 C43 (UniProt P09651) | inactive: 0.114
11 | PARP1 C162 (UniProt P09874) | inactive: 0.135
